Experiment [1] deals with untagged F411A Rec114(325-428) (S. cerevisiae) (UniProt P32841). The experiment is described as follows: SEC-MALS. A general note: Size exclusion chromatography separates by hydrodynamic size, large species first.
For experiment [2], the target named is T1, LexA-Rec102 (S. cerevisiae) (UniProt Q02721).
T1 sequence: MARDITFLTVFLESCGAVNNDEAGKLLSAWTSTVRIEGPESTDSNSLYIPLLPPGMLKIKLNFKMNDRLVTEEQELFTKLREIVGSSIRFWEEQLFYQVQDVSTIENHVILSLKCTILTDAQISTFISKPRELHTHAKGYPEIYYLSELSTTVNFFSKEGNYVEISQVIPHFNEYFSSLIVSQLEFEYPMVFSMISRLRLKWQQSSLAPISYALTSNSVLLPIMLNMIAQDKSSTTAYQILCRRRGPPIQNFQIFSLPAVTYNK
The experiment is described as follows: two-hybrid.

By UniProt entry, the sequences of proteins in these tests, tags left out.
UniProt P33323: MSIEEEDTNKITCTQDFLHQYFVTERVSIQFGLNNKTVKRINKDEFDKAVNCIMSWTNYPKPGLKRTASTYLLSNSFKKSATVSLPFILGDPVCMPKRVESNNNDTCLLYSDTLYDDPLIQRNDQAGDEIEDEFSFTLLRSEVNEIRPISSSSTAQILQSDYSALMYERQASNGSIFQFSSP

The target in experiment [3] is LexA-Rec104 (S. cerevisiae) (UniProt P33323). The experiment is described as follows: two-hybrid.
Experiment [4] addresses T2, Rec114–Mei4 complex (combinations of MBP-tagged and HisFlag-tagged subunits) (S. cerevisiae) (UniProt P32841).
T2 sequence 1: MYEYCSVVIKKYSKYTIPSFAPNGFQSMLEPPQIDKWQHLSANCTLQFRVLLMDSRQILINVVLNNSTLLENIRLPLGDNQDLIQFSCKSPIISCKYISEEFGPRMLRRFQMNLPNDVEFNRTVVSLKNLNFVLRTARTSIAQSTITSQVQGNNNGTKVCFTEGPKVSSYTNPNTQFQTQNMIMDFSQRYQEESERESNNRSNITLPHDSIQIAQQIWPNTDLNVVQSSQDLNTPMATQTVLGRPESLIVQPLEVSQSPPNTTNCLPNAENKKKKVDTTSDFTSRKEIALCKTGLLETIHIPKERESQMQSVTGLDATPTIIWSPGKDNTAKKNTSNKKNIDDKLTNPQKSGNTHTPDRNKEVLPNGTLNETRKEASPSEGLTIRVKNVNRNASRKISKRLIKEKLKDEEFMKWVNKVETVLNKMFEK
T2 sequence 2: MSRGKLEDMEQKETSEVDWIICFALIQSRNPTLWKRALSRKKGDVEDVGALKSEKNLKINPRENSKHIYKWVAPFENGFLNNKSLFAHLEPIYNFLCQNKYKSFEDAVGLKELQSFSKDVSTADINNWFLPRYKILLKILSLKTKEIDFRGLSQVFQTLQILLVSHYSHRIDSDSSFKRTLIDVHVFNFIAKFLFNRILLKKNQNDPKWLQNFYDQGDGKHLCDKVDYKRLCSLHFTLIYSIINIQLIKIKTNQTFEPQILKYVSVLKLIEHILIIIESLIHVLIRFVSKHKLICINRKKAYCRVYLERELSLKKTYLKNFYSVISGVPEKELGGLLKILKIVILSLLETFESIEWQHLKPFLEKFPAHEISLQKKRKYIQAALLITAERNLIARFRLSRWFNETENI
Description: pull-down.

Experiment [5] addresses T3, LexA-Rec114 (S. cerevisiae) (UniProt P32841).
T3 sequence: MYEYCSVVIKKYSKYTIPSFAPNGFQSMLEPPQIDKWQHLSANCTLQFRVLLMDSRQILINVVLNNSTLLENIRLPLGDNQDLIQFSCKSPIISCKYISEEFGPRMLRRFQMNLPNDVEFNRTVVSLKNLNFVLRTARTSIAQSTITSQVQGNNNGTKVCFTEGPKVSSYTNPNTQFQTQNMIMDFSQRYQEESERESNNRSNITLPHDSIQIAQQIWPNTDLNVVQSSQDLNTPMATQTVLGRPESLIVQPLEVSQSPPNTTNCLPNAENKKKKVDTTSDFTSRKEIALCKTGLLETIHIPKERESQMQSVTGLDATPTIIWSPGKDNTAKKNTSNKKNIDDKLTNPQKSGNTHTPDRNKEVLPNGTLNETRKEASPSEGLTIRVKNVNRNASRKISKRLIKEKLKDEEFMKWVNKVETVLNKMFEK
Description: two-hybrid.

In experiment [6] the target is T4, LexA-Mei4 (S. cerevisiae) (UniProt P29467).
T4 sequence: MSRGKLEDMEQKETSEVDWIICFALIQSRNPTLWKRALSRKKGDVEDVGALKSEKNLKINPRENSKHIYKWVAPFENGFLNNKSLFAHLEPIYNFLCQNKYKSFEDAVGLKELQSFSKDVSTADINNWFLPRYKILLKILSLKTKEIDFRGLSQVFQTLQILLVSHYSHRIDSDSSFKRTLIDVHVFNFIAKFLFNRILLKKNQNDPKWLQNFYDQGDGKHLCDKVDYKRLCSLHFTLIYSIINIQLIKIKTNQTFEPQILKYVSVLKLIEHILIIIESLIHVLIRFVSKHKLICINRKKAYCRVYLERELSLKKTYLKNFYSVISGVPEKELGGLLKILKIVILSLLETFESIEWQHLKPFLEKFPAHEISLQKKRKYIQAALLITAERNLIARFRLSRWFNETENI
The experiment is described as follows: two-hybrid.

Experiment [7] deals with T5, HisSUMORec114(325-428) F411A (S. cerevisiae) (UniProt P32841).
T5 sequence: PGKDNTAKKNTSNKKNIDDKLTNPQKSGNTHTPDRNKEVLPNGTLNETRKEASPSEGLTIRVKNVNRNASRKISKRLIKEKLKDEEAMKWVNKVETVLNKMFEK
Description: pull-down.

Experiment [8] deals with T6, HisSUMORec114(325-428) wild type (S. cerevisiae) (UniProt P32841).
T6 sequence: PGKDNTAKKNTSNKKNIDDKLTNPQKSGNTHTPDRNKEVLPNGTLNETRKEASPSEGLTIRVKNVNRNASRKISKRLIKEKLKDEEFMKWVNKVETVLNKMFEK
The experiment is described as follows: pull-down.

No constants are given. Whether binding was seen depends on the method and setting. For some of these results: Binding seen in cells or lysates may run through a third protein. Some results given as binding are weak or reduced against the parent protein; the word gives no strength. For some of these results: Where a sequence is shown, tags or fusion partners need not be part of it.

B1: untagged F411A Rec114(325-428) (domain or fragment, UniProt P32841 325-428)
chain: PGKDNTAKKNTSNKKNIDDKLTNPQKSGNTHTPDRNKEVLPNGTLNETRKEASPSEGLTIRVKNVNRNASRKISKRLIKEKLKDEEAMKWVNKVETVLNKMFEK
B1: in experiment [1], the binding result was “no binding”.

B2: Gal4AD-Rec114(del152-377) (protein, UniProt P32841)
chain: MYEYCSVVIKKYSKYTIPSFAPNGFQSMLEPPQIDKWQHLSANCTLQFRVLLMDSRQILINVVLNNSTLLENIRLPLGDNQDLIQFSCKSPIISCKYISEEFGPRMLRRFQMNLPNDVEFNRTVVSLKNLNFVLRTARTSIAQSTITSQVQPSEGLTIRVKNVNRNASRKISKRLIKEKLKDEEFMKWVNKVETVLNKMFEK
Regarding B2, the binding entry in experiment [2] and in experiment [3] was “binds” each time.

B3: Gal4AD-Rec114(53-428) (domain or fragment, UniProt P32841 53-428)
chain: MDSRQILINVVLNNSTLLENIRLPLGDNQDLIQFSCKSPIISCKYISEEFGPRMLRRFQMNLPNDVEFNRTVVSLKNLNFVLRTARTSIAQSTITSQVQGNNNGTKVCFTEGPKVSSYTNPNTQFQTQNMIMDFSQRYQEESERESNNRSNITLPHDSIQIAQQIWPNTDLNVVQSSQDLNTPMATQTVLGRPESLIVQPLEVSQSPPNTTNCLPNAENKKKKVDTTSDFTSRKEIALCKTGLLETIHIPKERESQMQSVTGLDATPTIIWSPGKDNTAKKNTSNKKNIDDKLTNPQKSGNTHTPDRNKEVLPNGTLNETRKEASPSEGLTIRVKNVNRNASRKISKRLIKEKLKDEEFMKWVNKVETVLNKMFEK
Turning to B3, the binding result in experiment [2] and in experiment [3] was “no binding” throughout.

B4: Mer2 co-expressed with Rec114 and Mei4 in insect cells (protein, UniProt P21651 1-314)
chain: MVARGRTDEISTDVSEANSEHSLMITETSSPFRSIFSHSGKVANAGALEESDKQILEWAGKLELESMELRENSDKLIKVLNENSKTLCKSLNKFNQLLEQDAATNGNVKTLIKDLASQIENQLDKVSTAMLSKGDEKKTKSDSSYRQVLVEEISRYNSKITRHVTNKQHETEKSMRCTQEMLFNVGSQLEDVHKVLLSLSKDMHSLQTRQTALEMAFREKADHAYDRPDVSLNGTTLLHDMDEAHDKQRKKSVPPPRMMVTRSMKRRRSSSPTLSTSQNHNSEDNDDASHRLKRAARTIIPWEELRPDTLESEL
As for B4, in experiment [4], the binding result is “no binding”.

B5: Gal4AD-Rec114(1-377) (domain or fragment, UniProt P32841 1-377)
chain: MYEYCSVVIKKYSKYTIPSFAPNGFQSMLEPPQIDKWQHLSANCTLQFRVLLMDSRQILINVVLNNSTLLENIRLPLGDNQDLIQFSCKSPIISCKYISEEFGPRMLRRFQMNLPNDVEFNRTVVSLKNLNFVLRTARTSIAQSTITSQVQGNNNGTKVCFTEGPKVSSYTNPNTQFQTQNMIMDFSQRYQEESERESNNRSNITLPHDSIQIAQQIWPNTDLNVVQSSQDLNTPMATQTVLGRPESLIVQPLEVSQSPPNTTNCLPNAENKKKKVDTTSDFTSRKEIALCKTGLLETIHIPKERESQMQSVTGLDATPTIIWSPGKDNTAKKNTSNKKNIDDKLTNPQKSGNTHTPDRNKEVLPNGTLNETRKEAS
Take B5: the binding entry in experiment [2] and in experiment [3] was “no binding” in each case.

B6: Gal4AD-Rec114 wild type (protein, UniProt P32841 1-428)
chain: MYEYCSVVIKKYSKYTIPSFAPNGFQSMLEPPQIDKWQHLSANCTLQFRVLLMDSRQILINVVLNNSTLLENIRLPLGDNQDLIQFSCKSPIISCKYISEEFGPRMLRRFQMNLPNDVEFNRTVVSLKNLNFVLRTARTSIAQSTITSQVQGNNNGTKVCFTEGPKVSSYTNPNTQFQTQNMIMDFSQRYQEESERESNNRSNITLPHDSIQIAQQIWPNTDLNVVQSSQDLNTPMATQTVLGRPESLIVQPLEVSQSPPNTTNCLPNAENKKKKVDTTSDFTSRKEIALCKTGLLETIHIPKERESQMQSVTGLDATPTIIWSPGKDNTAKKNTSNKKNIDDKLTNPQKSGNTHTPDRNKEVLPNGTLNETRKEASPSEGLTIRVKNVNRNASRKISKRLIKEKLKDEEFMKWVNKVETVLNKMFEK
As to B6, the binding entry in experiment [2], in experiment [5], in experiment [3] and in experiment [6] was “binds” in each case.

B7: Gal4AD-Rec114 H39A/L40A/S41A (HLS) mutant (protein, UniProt P32841 1-428)
chain: MYEYCSVVIKKYSKYTIPSFAPNGFQSMLEPPQIDKWQAAAANCTLQFRVLLMDSRQILINVVLNNSTLLENIRLPLGDNQDLIQFSCKSPIISCKYISEEFGPRMLRRFQMNLPNDVEFNRTVVSLKNLNFVLRTARTSIAQSTITSQVQGNNNGTKVCFTEGPKVSSYTNPNTQFQTQNMIMDFSQRYQEESERESNNRSNITLPHDSIQIAQQIWPNTDLNVVQSSQDLNTPMATQTVLGRPESLIVQPLEVSQSPPNTTNCLPNAENKKKKVDTTSDFTSRKEIALCKTGLLETIHIPKERESQMQSVTGLDATPTIIWSPGKDNTAKKNTSNKKNIDDKLTNPQKSGNTHTPDRNKEVLPNGTLNETRKEASPSEGLTIRVKNVNRNASRKISKRLIKEKLKDEEFMKWVNKVETVLNKMFEK
For B7, the binding result in experiment [5] and in experiment [6] was “binds” throughout.

B8: Gal4AD-Rec114-F411A (protein, UniProt P32841 1-428)
chain: MYEYCSVVIKKYSKYTIPSFAPNGFQSMLEPPQIDKWQHLSANCTLQFRVLLMDSRQILINVVLNNSTLLENIRLPLGDNQDLIQFSCKSPIISCKYISEEFGPRMLRRFQMNLPNDVEFNRTVVSLKNLNFVLRTARTSIAQSTITSQVQGNNNGTKVCFTEGPKVSSYTNPNTQFQTQNMIMDFSQRYQEESERESNNRSNITLPHDSIQIAQQIWPNTDLNVVQSSQDLNTPMATQTVLGRPESLIVQPLEVSQSPPNTTNCLPNAENKKKKVDTTSDFTSRKEIALCKTGLLETIHIPKERESQMQSVTGLDATPTIIWSPGKDNTAKKNTSNKKNIDDKLTNPQKSGNTHTPDRNKEVLPNGTLNETRKEASPSEGLTIRVKNVNRNASRKISKRLIKEKLKDEEAMKWVNKVETVLNKMFEK
On to B8, for which the binding result is listed as “binds” in experiment [2], “binds” in experiment [3] and “no binding” in experiment [6].

B9: Mei4(1-90) (domain or fragment, UniProt P29467 1-90)
chain: MSRGKLEDMEQKETSEVDWIICFALIQSRNPTLWKRALSRKKGDVEDVGALKSEKNLKINPRENSKHIYKWVAPFENGFLNNKSLFAHLE
For the molecule B9, the values for the binding entry in experiment [7] and in experiment [8] were “no binding” and “binds”, respectively.

These data come from paper doi:10.1101/2020.02.21.960245.
